The first data set in a line: LC-MS-MS MRM quantification of sulfido-conjugate levels in mouse tissues. To be noted: endogenous level.
For the compound `CCCCC/C=C\C\C=C/C=C/C=C/[C@@H](SC[C@H](N)C(=O)NCC(=O)O)[C@@H](O)CCCC(=O)O` [LTD4], the “24 h Mouse infected spleens” value is “^a (Below limits, ~1 pg)”. Turning to `CC/C=C\C[C@H](O)/C=C/C=C\C=C\C=C\[C@@H](SC[C@H](N)C(=O)NCC(=O)O)[C@@H](O)C/C=C\CCC(=O)O` [RCTR2, 8-cysteinylglycinyl, 7,17-hydroxy-4Z,9,11,13Z,15E,19Z-docosahexaenoic acid], the “24 h Mouse infected spleens” value is recorded as “^a (Below limits, ~1 pg)”. `CC/C=C\C[C@H](O)[C@@H](/C=C/C=C/C=C\C/C=C\C/C=C\CCC(=O)O)SC[C@H](N)C(=O)NCC(=O)O` [PCTR2, 16-cysteinylglycinyl, 17-hydroxy-4Z,7Z,10,12,14,19Z-docosahexaenoic acid]: the “24 h Mouse infected spleens” value is on record as “^a (Below limits, ~1 pg)”. Consider `CC/C=C\C[C@H](O)/C=C/C=C\C=C\C=C\[C@@H](SC[C@H](NC(=O)CC[C@H](N)C(=O)O)C(=O)NCC(=O)O)[C@@H](O)C/C=C\CCC(=O)O` [RCTR1, 8-glutathionyl, 7,17-hydroxy-4Z,9,11,13Z,15E,19Z-docosahexaenoic acid], for which the “24 h Mouse infected spleens” value is listed as “^a (Below limits, ~1 pg)”. For `CC/C=C\CC(O)/C=C/C=C\C=C\C=C\C(SCC(N)C(=O)O)C(O)C/C=C\CCC(=O)O` (centres unmarked) [RCTR3, 8-cysteinyl, 7,17-hydroxy-4Z,9,11,13Z,15E,19Z-docosahexaenoic acid], the “24 h Mouse infected spleens” value was “^a (Below limits, ~1 pg)”. As for `CCCCC/C=C\C\C=C/C=C/C=C/[C@@H](SC[C@H](N)C(=O)O)[C@@H](O)CCCC(=O)O` [LTE4], the “24 h Mouse infected spleens” value is “^a (Below limits, ~1 pg)”.

The same data set, now with this note: endogenous level; mean ± SEM; n 3 mice.
Regarding `CCCCC/C=C\C\C=C/C=C/C=C/[C@@H](SC[C@H](NC(=O)CC[C@H](N)C(=O)O)C(=O)NCC(=O)O)[C@@H](O)CCCC(=O)O` [LTC4], the “24 h Mouse infected spleens” value is on record as 43.3 ± 15.4 pg/mg. On to “13-glutathionyl, 14-hydroxy-docosahexaenoic acid [SCI]”, for which the “24 h Mouse infected spleens” value stood at 10.0 ± 4.1 pg/mg. For the compound `CC/C=C\C[C@H](O)[C@@H](/C=C/C=C/C=C\C/C=C\C/C=C\CCC(=O)O)SC[C@H](N)C(=O)O` [PCTR3, 16-cysteinyl, 17-hydroxy-4Z,7Z,10,12,14,19Z-docosahexaenoic acid], the “24 h Mouse infected spleens” value amounted to 23.3 ± 4.4 pg/mg.

For “13-cysteinyl, 14-hydroxy-docosahexaenoic acid [MCTR3]”, the “24 h Mouse infected spleens” value was determined as 53.0 ± 14.9 pg/mg. Consider `CC/C=C\CC(O)C(/C=C/C=C/C=C\C/C=C\C/C=C\CCC(=O)O)SCC(NC(=O)CCC(N)C(=O)O)C(=O)NCC(=O)O` (centres unmarked) [PCTR1, 16-glutathionyl, 17-hydroxy-4Z,7Z,10,12,14,19Z-docosahexaenoic acid], for which the “24 h Mouse infected spleens” value is reported as 19.4 ± 4.8 pg/mg. On the same count and under the same terms, in the case of `CCC=CCC=CCC(O)C(C=CC=CC=CCC=CCCC(=O)O)SCC(N)C(=O)NCC(=O)O` (centres unmarked) [SCII, 13-cysteinylglycinyl, 14-hydroxy-docosahexaenoic acid] it was 22.2 ± 17.5 pg/mg.

Still in this data set, the particulars now being: endogenous level; mean ± SEM; n 6 mice; lavage volume 5 ml.
“13-glutathionyl, 14-hydroxy-docosahexaenoic acid [SCI]”: the “24 h Resolving mouse exudates” value is recorded as 1.8 ± 0.7 pg/lavage. For “13-cysteinyl, 14-hydroxy-docosahexaenoic acid [MCTR3]”, the “24 h Resolving mouse exudates” value amounted to 13.4 ± 3.7 pg/lavage.

These data come from patent US11135228B2, “Cysteinyl-proresolving mediators that promote resolution of infection and organ protection” (THE BRIGHAM AND WOMEN'S HOSPITAL, priority 2014, dated 2021).
